According to PMC4763541, “Pitchfork and Gprasp2 Target Smoothened to the Primary Cilium for Hedgehog Pathway Activation” (PLoS ONE, 2016):
These are yes or no findings as the source states them, for the method shown. In cells and extracts the contact can be indirect. These calls come from enrichment with a bait or labelling near it, and not all partners need be listed. Sequences can lack the tags named with a protein.

Protein sequences, listed by entry. Tags and fused reporters are not part of them. Residues count along the entry.
UniProt P63208: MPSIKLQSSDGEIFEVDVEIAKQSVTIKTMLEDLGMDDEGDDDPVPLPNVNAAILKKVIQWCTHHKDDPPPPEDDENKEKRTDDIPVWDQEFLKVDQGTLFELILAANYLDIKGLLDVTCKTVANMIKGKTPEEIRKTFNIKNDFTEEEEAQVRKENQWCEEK
UniProt Q99523, residues 78-831: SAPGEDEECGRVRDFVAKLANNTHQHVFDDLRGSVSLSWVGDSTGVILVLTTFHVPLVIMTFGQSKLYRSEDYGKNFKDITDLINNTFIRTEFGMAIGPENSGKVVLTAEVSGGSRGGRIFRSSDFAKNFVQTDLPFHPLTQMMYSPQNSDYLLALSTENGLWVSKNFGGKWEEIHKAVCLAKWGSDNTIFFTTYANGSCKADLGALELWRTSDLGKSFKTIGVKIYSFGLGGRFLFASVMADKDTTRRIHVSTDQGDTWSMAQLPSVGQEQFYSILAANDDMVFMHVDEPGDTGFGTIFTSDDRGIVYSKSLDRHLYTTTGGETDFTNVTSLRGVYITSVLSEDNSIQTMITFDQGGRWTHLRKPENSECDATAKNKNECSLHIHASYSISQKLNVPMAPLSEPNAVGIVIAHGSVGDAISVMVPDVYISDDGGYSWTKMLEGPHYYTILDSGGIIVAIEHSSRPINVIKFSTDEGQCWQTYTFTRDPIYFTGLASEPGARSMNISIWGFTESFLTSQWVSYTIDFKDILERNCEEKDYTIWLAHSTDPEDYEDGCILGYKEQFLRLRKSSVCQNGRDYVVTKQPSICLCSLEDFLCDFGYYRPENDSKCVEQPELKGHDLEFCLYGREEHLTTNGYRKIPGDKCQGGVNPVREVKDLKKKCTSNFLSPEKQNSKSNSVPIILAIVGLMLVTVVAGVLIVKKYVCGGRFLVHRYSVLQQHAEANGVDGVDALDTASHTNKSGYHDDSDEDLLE
UniProt P18085: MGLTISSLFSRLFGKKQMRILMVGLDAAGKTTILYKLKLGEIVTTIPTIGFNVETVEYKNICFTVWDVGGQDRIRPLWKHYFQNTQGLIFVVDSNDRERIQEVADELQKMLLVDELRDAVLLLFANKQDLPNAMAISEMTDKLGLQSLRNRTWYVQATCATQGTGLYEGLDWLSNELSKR

T1: Pitchfork (PIFO), SF-TAP-tagged (UniProt Q8TCI5)
T1 sequence: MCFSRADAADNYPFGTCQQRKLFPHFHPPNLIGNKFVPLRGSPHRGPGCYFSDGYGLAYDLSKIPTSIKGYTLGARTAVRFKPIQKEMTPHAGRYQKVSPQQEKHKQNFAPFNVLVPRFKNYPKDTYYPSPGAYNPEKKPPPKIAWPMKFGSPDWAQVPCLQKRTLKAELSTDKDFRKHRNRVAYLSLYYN


Target: T1, Pitchfork (PIFO), SF-TAP-tagged
Assay: affinity purification with mass spectrometry; SILAC; SF-TAP-tagged PIFO against SF-TAP control in HEK293T; one-step Strep purification on Strep-Tactin-Superflow beads, lysis in 0.5% NP-40 in TBS (30 mM Tris-HCl pH 7.4, 150 mM NaCl), LC-MS/MS, significance B p<0.05

binding | Molecule
binds | Skp1 (from UniProt P63208 1-163)
binds | Sortilin1 (SORT1) (from UniProt Q99523 78-831)
binds | small GTPase ADP-ribosylation factor 4 (ARF4) (from UniProt P18085 1-180)
binds | endogenous GPRASP2 of HEK293T cells (G protein-coupled receptor trafficking protein) (protein, UniProt Q96D09 1-838) MTGAEIEPSAQAKPEKKAGEEVIAGPERENDVPLVVRPKVRTQATTGARPKTETKSVPAARPKTEAQAMSGARPKTEVQVMGGARPKTEAQGITGARPKTDARAVGGARSKTDAKAIPGARPKDEAQAWAQSEFGTEAVSQAEGVSQTNAVAWPLATAESGSVTKSKGLSMDRELVNVDAETFPGTQGQKGIQPWFGPGEETNMGSWCYSRPRAREEASNESGFWSADETSTASSFWTGEETSVRSWPREESNTRSRHRAKHQTNPRSRPRSKQEAYVDSWSGSEDEASNPFSFWVGENTNNLFRPRVREEANIRSKLRTNREDCFESESEDEFYKQSWVLPGEEANSRFRHRDKEDPNTALKLRAQKDVDSDRVKQEPRFEEEVIIGSWFWAEKEASLEGGASAICESEPGTEEGAIGGSAYWAEEKSSLGAVAREEAKPESEEEAIFGSWFWDRDEACFDLNPCPVYKVSDRFRDAAEELNASSRPQTWDEVTVEFKPGLFHGVGFRSTSPFGIPEEASEMLEAKPKNLELSPEGEEQESLLQPDQPSPEFTFQYDPSYRSVREIREHLRARESAESESWSCSCIQCELKIGSEEFEEFLLLMDKIRDPFIHEISKIAMGMRSASQFTRDFIRDSGVVSLIETLLNYPSSRVRTSFLENMIHMAPPYPNLNMIETFICQVCEETLAHSVDSLEQLTGIRMLRHLTMTIDYHTLIANYMSGFLSLLTTANARTKFHVLKMLLNLSENPAVAKKLFSAKALSIFVGLFNIEETNDNIQIVIKMFQNISNIIKSGKMSLIDDDFSLEPLISAFREFEELAKQLQAQIDNQNDPEVGQQS
